# Measured values from PubChem BioAssay (EPA / NIEHS).
# Amino acid sequences for entries named in this document (tags omitted). A change or cut given only in a name is not applied to a line headed by its entry.
# UniProt P30536, whole entry, looked up: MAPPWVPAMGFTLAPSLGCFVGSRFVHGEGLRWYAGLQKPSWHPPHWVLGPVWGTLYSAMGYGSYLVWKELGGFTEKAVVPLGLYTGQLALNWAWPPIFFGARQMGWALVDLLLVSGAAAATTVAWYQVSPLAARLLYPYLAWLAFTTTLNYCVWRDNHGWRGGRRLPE
# UniProt P03372, whole entry, looked up: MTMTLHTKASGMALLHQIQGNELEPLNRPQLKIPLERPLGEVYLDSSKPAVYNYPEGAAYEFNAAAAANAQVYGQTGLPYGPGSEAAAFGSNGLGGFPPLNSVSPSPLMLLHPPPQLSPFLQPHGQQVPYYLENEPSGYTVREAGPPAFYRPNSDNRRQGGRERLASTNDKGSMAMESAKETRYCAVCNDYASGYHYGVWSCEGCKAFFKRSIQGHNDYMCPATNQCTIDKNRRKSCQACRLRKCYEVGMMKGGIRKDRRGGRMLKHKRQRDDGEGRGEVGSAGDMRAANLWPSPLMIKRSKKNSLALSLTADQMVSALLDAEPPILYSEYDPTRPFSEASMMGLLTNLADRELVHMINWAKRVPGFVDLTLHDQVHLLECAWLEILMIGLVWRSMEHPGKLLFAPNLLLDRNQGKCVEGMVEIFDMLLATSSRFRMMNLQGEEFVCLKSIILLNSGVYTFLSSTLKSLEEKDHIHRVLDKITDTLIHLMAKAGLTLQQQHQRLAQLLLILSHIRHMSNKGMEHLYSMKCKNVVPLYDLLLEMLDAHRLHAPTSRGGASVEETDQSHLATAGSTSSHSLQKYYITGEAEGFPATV
# UniProt Q92731, whole entry, looked up: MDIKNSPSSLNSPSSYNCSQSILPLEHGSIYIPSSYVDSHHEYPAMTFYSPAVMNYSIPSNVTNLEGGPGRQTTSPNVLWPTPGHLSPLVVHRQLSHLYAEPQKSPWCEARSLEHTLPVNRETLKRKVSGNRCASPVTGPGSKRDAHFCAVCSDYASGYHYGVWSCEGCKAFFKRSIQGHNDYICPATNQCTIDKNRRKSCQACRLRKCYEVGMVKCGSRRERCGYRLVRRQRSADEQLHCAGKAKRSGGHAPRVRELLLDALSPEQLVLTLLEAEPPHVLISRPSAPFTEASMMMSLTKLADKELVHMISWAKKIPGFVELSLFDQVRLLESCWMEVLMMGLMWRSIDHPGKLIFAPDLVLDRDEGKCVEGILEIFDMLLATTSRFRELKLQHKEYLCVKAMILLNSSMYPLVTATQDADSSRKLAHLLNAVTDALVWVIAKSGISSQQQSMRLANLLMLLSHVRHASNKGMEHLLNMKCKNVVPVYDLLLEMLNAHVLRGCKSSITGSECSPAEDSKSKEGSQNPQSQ
# UniProt P27815: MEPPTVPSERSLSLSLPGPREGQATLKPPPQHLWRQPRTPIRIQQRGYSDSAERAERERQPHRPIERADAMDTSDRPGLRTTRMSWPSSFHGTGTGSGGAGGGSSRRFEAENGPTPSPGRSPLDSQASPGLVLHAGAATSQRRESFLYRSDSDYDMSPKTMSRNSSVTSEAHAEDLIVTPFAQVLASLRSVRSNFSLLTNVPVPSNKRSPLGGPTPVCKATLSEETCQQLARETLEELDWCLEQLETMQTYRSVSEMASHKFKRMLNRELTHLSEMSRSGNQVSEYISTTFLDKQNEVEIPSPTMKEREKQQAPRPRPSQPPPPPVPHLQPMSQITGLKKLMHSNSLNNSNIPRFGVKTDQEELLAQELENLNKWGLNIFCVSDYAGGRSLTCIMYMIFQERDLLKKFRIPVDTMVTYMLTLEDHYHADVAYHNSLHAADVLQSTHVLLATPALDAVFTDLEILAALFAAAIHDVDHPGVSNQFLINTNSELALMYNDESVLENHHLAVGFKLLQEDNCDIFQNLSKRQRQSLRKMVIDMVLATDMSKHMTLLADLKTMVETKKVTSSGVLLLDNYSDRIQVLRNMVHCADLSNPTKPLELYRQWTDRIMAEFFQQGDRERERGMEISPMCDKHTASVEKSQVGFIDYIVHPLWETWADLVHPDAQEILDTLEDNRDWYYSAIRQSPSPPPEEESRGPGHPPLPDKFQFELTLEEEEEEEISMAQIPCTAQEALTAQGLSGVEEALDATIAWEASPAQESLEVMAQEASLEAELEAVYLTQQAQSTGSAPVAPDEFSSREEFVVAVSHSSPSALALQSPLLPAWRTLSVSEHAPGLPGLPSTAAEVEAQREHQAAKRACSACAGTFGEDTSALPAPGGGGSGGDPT
# UniProt P10276, whole entry, looked up: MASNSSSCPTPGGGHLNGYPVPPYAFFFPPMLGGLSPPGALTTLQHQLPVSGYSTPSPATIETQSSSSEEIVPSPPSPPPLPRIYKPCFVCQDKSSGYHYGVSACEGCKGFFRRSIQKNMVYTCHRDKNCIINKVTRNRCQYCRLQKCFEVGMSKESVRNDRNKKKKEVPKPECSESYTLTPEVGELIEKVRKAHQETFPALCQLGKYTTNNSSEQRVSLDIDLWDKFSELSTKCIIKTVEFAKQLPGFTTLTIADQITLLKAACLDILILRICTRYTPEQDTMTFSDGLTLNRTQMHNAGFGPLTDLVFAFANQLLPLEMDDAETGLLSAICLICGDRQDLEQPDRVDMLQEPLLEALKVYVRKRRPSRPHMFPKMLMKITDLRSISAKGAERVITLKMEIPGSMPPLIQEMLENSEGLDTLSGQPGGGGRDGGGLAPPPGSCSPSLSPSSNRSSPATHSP
# UniProt P49884, whole entry, looked up: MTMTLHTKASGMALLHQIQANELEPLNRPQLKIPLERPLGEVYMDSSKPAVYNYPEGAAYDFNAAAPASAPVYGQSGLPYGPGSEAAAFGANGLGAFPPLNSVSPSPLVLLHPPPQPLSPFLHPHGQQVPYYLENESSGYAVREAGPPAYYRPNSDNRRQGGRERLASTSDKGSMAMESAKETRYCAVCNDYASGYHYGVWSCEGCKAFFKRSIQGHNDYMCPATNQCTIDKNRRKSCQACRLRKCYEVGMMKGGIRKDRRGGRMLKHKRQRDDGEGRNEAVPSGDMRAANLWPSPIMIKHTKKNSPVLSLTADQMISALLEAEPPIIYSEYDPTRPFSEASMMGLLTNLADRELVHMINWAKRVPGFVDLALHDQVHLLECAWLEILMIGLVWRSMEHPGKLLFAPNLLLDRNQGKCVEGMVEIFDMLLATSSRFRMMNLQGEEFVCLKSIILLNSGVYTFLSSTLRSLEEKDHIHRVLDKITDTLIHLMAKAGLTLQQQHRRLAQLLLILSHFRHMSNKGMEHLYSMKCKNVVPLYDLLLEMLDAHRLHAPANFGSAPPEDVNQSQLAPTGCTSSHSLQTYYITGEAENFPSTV
# UniProt P19785, whole entry, looked up: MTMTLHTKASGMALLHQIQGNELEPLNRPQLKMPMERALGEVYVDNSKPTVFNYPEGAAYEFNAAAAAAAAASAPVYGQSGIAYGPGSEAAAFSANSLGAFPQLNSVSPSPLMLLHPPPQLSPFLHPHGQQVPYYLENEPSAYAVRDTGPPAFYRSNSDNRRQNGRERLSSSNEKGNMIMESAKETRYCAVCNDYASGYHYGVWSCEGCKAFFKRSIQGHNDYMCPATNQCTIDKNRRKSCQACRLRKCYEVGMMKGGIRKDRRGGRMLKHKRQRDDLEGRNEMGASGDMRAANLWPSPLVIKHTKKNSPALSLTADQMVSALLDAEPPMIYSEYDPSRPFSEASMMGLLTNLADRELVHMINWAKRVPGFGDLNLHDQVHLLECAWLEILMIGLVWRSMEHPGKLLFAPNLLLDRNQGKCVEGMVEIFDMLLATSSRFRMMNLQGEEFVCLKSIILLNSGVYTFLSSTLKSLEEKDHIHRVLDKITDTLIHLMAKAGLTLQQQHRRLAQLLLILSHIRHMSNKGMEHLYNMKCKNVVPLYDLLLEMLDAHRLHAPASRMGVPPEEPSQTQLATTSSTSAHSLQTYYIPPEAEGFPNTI
# UniProt P33261, whole entry, looked up: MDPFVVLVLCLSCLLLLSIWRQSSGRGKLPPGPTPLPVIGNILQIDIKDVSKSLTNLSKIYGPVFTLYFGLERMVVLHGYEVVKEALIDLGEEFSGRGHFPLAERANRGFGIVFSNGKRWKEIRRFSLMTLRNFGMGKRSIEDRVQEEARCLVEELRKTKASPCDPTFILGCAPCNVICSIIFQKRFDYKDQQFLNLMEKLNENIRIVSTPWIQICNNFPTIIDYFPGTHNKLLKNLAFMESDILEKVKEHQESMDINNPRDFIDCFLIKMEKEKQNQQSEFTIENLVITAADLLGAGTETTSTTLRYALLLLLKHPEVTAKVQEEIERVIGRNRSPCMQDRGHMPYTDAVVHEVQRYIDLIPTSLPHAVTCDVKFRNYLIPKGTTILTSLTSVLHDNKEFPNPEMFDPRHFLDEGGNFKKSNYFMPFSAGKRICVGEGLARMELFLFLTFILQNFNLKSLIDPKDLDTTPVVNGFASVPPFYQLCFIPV
# UniProt P10275: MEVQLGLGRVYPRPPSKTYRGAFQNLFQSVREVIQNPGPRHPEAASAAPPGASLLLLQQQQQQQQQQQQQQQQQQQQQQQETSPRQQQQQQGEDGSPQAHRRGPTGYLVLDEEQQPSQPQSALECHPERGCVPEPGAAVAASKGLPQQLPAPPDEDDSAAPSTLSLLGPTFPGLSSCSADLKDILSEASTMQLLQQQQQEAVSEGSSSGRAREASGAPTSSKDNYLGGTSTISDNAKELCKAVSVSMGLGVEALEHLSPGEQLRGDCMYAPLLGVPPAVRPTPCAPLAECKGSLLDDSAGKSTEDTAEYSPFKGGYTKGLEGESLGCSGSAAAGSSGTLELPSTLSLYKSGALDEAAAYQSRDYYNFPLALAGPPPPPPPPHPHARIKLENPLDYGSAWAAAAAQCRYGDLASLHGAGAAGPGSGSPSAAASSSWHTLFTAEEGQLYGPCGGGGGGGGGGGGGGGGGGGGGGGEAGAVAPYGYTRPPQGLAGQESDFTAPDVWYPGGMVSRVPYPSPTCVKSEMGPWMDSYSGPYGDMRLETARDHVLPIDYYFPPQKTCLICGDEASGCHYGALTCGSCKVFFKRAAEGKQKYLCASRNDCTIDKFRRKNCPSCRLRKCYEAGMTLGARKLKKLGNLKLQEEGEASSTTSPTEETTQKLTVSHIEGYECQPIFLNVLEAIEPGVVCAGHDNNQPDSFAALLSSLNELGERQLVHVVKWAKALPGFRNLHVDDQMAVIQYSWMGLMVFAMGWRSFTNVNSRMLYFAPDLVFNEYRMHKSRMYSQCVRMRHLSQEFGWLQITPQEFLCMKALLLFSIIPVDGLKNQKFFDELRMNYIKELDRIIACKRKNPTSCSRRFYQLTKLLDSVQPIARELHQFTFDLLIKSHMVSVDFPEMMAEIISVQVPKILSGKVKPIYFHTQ
# Values joined by “and” are separate entries in the source; they are usually repeats but may differ in a detail not shown here. Equal entries are not always repeated. Inconclusive results, whose numbers are uncertain, are shown with a selection of clear calls. For part of these data: Where the call is inconclusive, the potency comes from a doubtful curve fit. A structure can be active in one record and inactive in another. Active and inactive are the calls of the source. The calls were made as follows: active = hit-call score of the fitted dose curve at least 0.9, where 1 is the maximum; inconclusive = response in the unintended direction; inactive = score below 0.9. Peptide text beside a SMILES is read from it.
# Key:
# [1] = target: human Peripheral-type Benzodiazepine Receptor (PBR), TSPO (gene 706) (UniProt P30536); assay: NVS_MP_hPBR: NovaScreen (NVS) Membrane Protein Assay for human Peripheral-type Benzodiazepine Receptor (PBR) (AID 2283331);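 also: hits reduce radioligand binding relative to DMSO baseline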
# Procedure, shortened: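 Human colonic cell membranes were incubated with test chemical for 1 hour; radioligand binding was measured by filter-based scintillation counting. Primary screen ran in duplicate at 25 uM, with actives followed in concentration series; loss of signal versus DMSO baseline.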
# [2] = target: Estrogen receptor (Homo sapiens) + Estrogen receptor beta (Homo sapiens) (UniProt P03372+Q92731); assay: OT_ER_ERaERb_0480: Odyssey Thera (OT) 8-hour HEK293T Protein-Complementation Assay for Estrogen Receptor-alpha/-beta Heterodimer (AID 2283352)
# Procedure, shortened: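 HEK293T cells expressing ER-alpha/ER-beta LBD fusions to complementary reporter fragments were dosed with compound for 8 hours. Heterodimer formation was read as increased nuclear (agonist) or nuclear plus cytoplasmic (antagonist) mean fluorescence intensity versus DMSO vehicle.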
# [3] = target: human Phosphodiesterase 4A1 (PDE4A1), PDE4A (gene 5141) (UniProt P27815); assay: NVS_ENZ_hPDE4A1: NovaScreen (NVS) Enzymatic Assay for human Phosphodiesterase 4A1 (PDE4A1) (AID 2283191)
# Procedure, shortened: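 Cell-free recombinant human PDE4A1 with fluorescent substrate; product separated by electrophoretic mobility shift, 1 h. Screened at 25 uM, then up to 50 uM in concentration-response; loss of signal fitted against DMSO.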
# [4] = target: human Phosphodiesterase 5 (PDE5), PDE5A (gene 8654) (UniProt O76074); assay: NVS_ENZ_hPDE5: NovaScreen (NVS) Enzymatic Assay for human Phosphodiesterase 5 (PDE5) (AID 2283194)
# Procedure, shortened: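 Recombinant human PDE5 with specific substrate, read 1 h after dosing by fluorescence with electrophoretic mobility-shift separation of substrate and product. Initial single-concentration duplicate screen at 25 uM, actives followed in concentration series; loss of activity versus DMSO.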
# [5] = target: Retinoic acid receptor alpha (Homo sapiens) (UniProt P10276); assay: NVS_NR_hRAR_Antagonist: NovaScreen (NVS) Nuclear Receptor Binding Assay for human Retinoic Acid Alpha Receptor Antagonism (RAR) (AID 2283358)
# Procedure, shortened: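 Cell-free TR-FRET binding assay on extracted receptor protein, run in antagonist mode; signal read 2 hours after chemical dosing. Loss of signal was fitted relative to DMSO baseline. Screened at 25 uM in duplicate, actives followed up in concentration series.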
# [6] = CCTE_Mundy_HCI_hNP1_Pro_ResponderAvgInten: CCTE's Proliferation Assay in human neuroprogenitor cells, Mundy Lab (AID 2284224);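 also: human neural progenitor cells hNP1 derived from WA09 embryonic stem cells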
# Procedure, shortened: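 Human neuroprogenitors (hNP1, WA09 lineage) receive test chemical after 40 to 44 hours of attachment. A four-hour BrdU pulse begins twenty hours later, followed by fixation and high content imaging; signal is referenced to DMSO controls.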
# [7] = target: bovine Estrogen Receptor (ER), ESR1 (gene 407238) (UniProt P49884); assay: NVS_NR_bER: NovaScreen (NVS) Nuclear Receptor Binding Assay for bovine Estrogen Receptor (ER) (AID 2283345);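 also: actives lower the bound radioligand count which means they displace the ER ligand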
# Procedure, shortened: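 Scintillation counting of displaced radioligand gave the readout; bovine uterine membrane extract supplied the receptor. Measured 18 h post-dose, normalized to DMSO baseline. Single 25 uM duplicate screen preceded concentration-response follow-up.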
# [8] = target: Estrogen receptor (Homo sapiens) (UniProt P03372); assay: NVS_NR_hER: NovaScreen (NVS) Nuclear Receptor Binding Assay for human Estrogen Receptor (ER) (AID 2283348)
# Procedure, shortened: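 Cell-free radioligand binding with protein extracted from MCF7 cells; scintillation counting 18 hours after dosing. Loss of signal versus DMSO baseline read as displacement; primary single-concentration screen at 25 uM in duplicate, actives retested in concentration series.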
# [9] = target: mouse Estrogen Receptor alpha (Era), Esr1 (gene 13982) (UniProt P19785); assay: NVS_NR_mERa: NovaScreen (NVS) Nuclear Receptor Binding Assay for mouse Estrogen Receptor alpha (Era) (AID 2283378);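 also: hit means loss of bound radioligand signal relative to DMSO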
# Procedure, shortened: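 Cell-free radioligand binding with extracted mouse Era protein; competitive displacement of radiolabelled ligand, read by filter-based scintillation counting 18 hours after dosing. Loss of signal versus DMSO baseline taken as binding; single screening concentration 25 uM, actives followed in concentration series.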
# [10] = CCTE_Shafer_MEA_acute_AB: CCTE's Alamar Blue Assay for Cytotoxicity in the Neural Acute Assay, Shafer Lab (AID 2284069);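 also: active compounds lower the viability signal compared with DMSO wells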
# Procedure, shortened: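 Metabolic activity in chemically exposed rat cortical neurons (MEA cultures, day 13/15 post-plating) measured via CellTiter Blue resazurin reduction, 544/590 nm fluorescence; fitted relative to DMSO, with signal loss indicating reduced viability.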
# [11] = CCTE_Shafer_MEA_acute_LDH: CCTE's Lactate Dehydrogenase Assay for Cytotoxicity in the Neural Acute Assay, Shafer Lab (AID 2284086);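 also: active means LDH release rises above DMSO vehicle level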
# Procedure, shortened: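 Released lactate dehydrogenase, read at 490 nm, indicated cytotoxicity after acute 40-min compound treatment of rat cortical neuron networks grown on 48-well MEA plates.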
# [12] = Tanguay_ZF_120hpf_AXIS_legacy: (Legacy) Oregon State University Tanguay Lab 120 Hour Post-fertilization zebrafish Assay for Body Axis Malformation (AID 2283635);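 also: potency for an increased fraction of larvae scored with body axis malformation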
# Procedure, shortened: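 Tropical 5D wild-type zebrafish embryos, dechorionated with pronase at 4 hpf, were placed singly in wells at 6 hpf and exposed statically to test chemical (0.64% DMSO final) at 28C until 120 hpf, then scored by brightfield for body axis defects.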
# [13] = read-out: xenobiotic metabolism (CYP2C9), CYP2C9 (gene 1559); assay: CLD_CYP2C9_6hr: CellzDirect (CLD) Gene Expression Assay for xenobiotic metabolism (CYP2C9) at 6 hours (AID 2283664)
# Procedure, shortened: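 Primary human hepatocytes dosed daily with test chemicals at multiple concentrations; harvested at 6 h. CYP2C9 mRNA induction measured by qNPA chemiluminescence. Gain of signal fitted against 0.2% DMSO vehicle; cytotoxicity annotated from phase-contrast morphology.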
# [14] = read-out: organic anion transporter (SLCO1B1), SLCO1B1 (gene 10599); assay: CLD_SLCO1B1_24hr: CellzDirect (CLD) Gene Expression Assay for organic anion transporter (SLCO1B1) at 24 hours (AID 2283690)
# Procedure, shortened: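 Primary human hepatocytes (two donor preparations) dosed daily for two days with chemicals at multiple concentrations, 0.2% DMSO vehicle. SLCO1B1 mRNA at 24 h measured by qNPA chemiluminescence; induction fitted relative to DMSO.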
# [15] = read-out: ABC Transporter (ABCB11), ABCB11 (gene 8647); assay: CLD_ABCB11_48hr: CellzDirect (CLD) Gene Expression Assay for ABC Transporter (ABCB11) at 48 hours (AID 2283697)
# Procedure, shortened: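 Primary human hepatocytes from two donor preparations dosed daily for two days at multiple concentrations; 0.2% DMSO vehicle. ABCB11 mRNA at 48 h by quantitative nuclease protection assay, chemiluminescence; fitted for induction versus DMSO.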
# [16] = read-out: Cytochrome P450 2C19 (Homo sapiens) (UniProt P33261); assay: CLD_CYP2C19_48hr: CellzDirect (CLD) Gene Expression Assay for xenobiotic metabolism (CYP2C19) at 48 hours (AID 2283700);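 as to outcome: fitted upward so actives raise CYP2C19 mRNA above the 0.2% DMSO vehicle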
# Procedure, shortened: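 Primary human hepatocytes (two donor preparations) dosed daily for two days, harvested at 48 h; CYP2C19 mRNA induction measured by qNPA chemiluminescence. Gain-of-signal fitted relative to 0.2% DMSO vehicle as baseline.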
# [17] = CLD_ACTIN_48hr: CellzDirect (CLD) Gene Expression Assay for Baseline Control (Actin) at 48 hours (AID 2283702)
# Procedure, shortened: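 Primary human hepatocytes (two donor preparations) dosed daily for two days with ToxCast chemicals at multiple concentrations versus 0.2% DMSO vehicle; harvested at 48 h. Actin mRNA measured as a background control by quantitative nuclease protection assay with chemiluminescence.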
# [18] = read-out: organic anion transporter (SLCO1B1), SLCO1B1 (gene 10599); assay: CLD_SLCO1B1_48hr: CellzDirect (CLD) Gene Expression Assay for organic anion transporter (SLCO1B1) at 48 hours (AID 2283707)
# Procedure, shortened: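 Primary human hepatocytes from two donor preparations dosed daily for two days with multiple concentrations, 0.2% DMSO vehicle. SLCO1B1 mRNA at 48 h by quantitative nuclease protection assay, chemiluminescence; gain-of-signal fitted versus DMSO.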
# [19] = target: Nucleoli Translocation, AR (gene 367) (UniProt P10275); assay: UPITT_HCI_U2OS_AR_TIF2_Nucleoli_Agonist: University of Pittsburgh U2OS Androgen Receptor-Transcriptional Intermediary Factor 2 (AR-TIF2) Agonism High Content Imaging Assay for Nucleoli Translocation (AID 2283998)
# Procedure, shortened: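 Cells express human AR fused to red fluorescent protein and TIF2 fused to GFP. Red fluorescence in the nucleolar region was quantified by high-content imaging and fitted as gain-of-signal against a DMSO baseline. Compounds were tested at 0.195 to 50 uM final (0.5% DMSO).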
# [20] = target: Ratio of Nucleoli Translocation and Cytoplasm, AR (gene 367) (UniProt P10275); assay: UPITT_HCI_U2OS_AR_TIF2_Nucleoli_Cytoplasm_Ratio_Antagonist: University of Pittsburgh U2OS Androgen Receptor-Transcriptional Intermediary Factor 2 (AR-TIF2) Antagonism High Content Imaging Assay for Ratio of Nucleoli Translocation and Cytoplasm (AID 2283999);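 also: antagonists lower the DHT-driven ratio of nucleolar to cytoplasmic red signal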
# Procedure, shortened: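 High-content imaging quantifies the red nucleolar:cytoplasmic fluorescence ratio in U2OS cells with AR-RFP and TIF2-GFP. Final concentrations are 20 uM (screen) or 0.195–50 uM (dose response), analysed against DHT as baseline.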
smiles,measurement,setting,value
CC(C)Nc1ccc(NC(C)C)c2c1C(=O)c1ccccc1C2=O,AC50,[1],active: 3.66 µM
same,AC50,[2],inconclusive: 26.5 µM
Cn1c(=O)c2[nH]cnc2n(C)c1=O,outcome,[3],inactive
CNC(C)=O,AC50,[4],inconclusive: 25 µM
same,AC50,[5],inconclusive: 25 µM
OC(O)(C(F)C(O)(O)C(F)(F)F)C(F)(F)F,AC50,[6],inconclusive: 0.00464 µM
COc1ccc(-n2nc(C(F)F)cc2-c2ccc(S(C)=O)cc2)cc1 (stereo not given),AC50,[4],active: 12.9 µM
same,AC50,[1],inconclusive: 5.61 µM
CCCCC(CC)C(=O)O (stereo not given),AC50,[4],inconclusive: 2.33 µM
[Cl][In]([Cl])[Cl],AC50,[7],inconclusive: 15.9 µM
same,AC50,[8],active: 25 µM
same,AC50,[9],inconclusive: 337 nM and inconclusive: 235 nM
CC(CN=Cc1ccccc1O)N=Cc1ccccc1O (stereo not given),AC50,[10],inconclusive: 15 µM
same,AC50,[11],inconclusive: 15 µM
CCCCOCCOCCOCc1cc2c(cc1CCC)OCO2,AC50,[5],inconclusive: 25 µM
same,AC50,[12],active: 25.5 µM
same,AC50,[13],inconclusive: 20 µM
same,AC50,[14],inconclusive: 20 µM
same,AC50,[15],inconclusive: 4.16 µM
same,AC50,[16],inconclusive: 20 µM
same,AC50,[17],inconclusive: 20 µM
same,AC50,[18],inconclusive: 20 µM
same,AC50,[19],inconclusive: 50 µM
O=C(O)c1cccc(C[C@@H]2COc3ccc(OCc4nc5cc(F)ccc5s4)cc3[C@@H]2O)c1,AC50,[3],inconclusive: 25 µM
same,AC50,[8],inconclusive: 25 µM
same,AC50,[2],inconclusive: 50 µM
same,outcome,[9],inactive
CC(C)(O)c1ccc(CNC(=O)c2cccnc2Oc2ccc(F)cc2)cc1,AC50,[3],inconclusive: 25 µM
O=C(Oc1ccccc1)c1ccc(O)cc1,AC50,[1],active: 9.99 µM
c1ccc(Nc2ccccc2)cc1,AC50,[13],inconclusive: 0.00335 µM
same,outcome,[14],inactive
same,outcome,[15],inactive
same,outcome,[16],inactive
same,AC50,[17],inconclusive: 4.93 µM
same,outcome,[18],inactive
COC(=O)[C@H](Cc1ccccc1)NC(=O)[C@@H](N)CC(=O)O (HELM PEPTIDE1{D.F.[CO[*:1]]}$$$$V2.0),AC50,[10],inconclusive: 15 µM
same,outcome,[6],inactive
CCCCC[C@H](O)CC(=O)CCc1ccc(O)c(OC)c1,AC50,[19],inconclusive: 50 µM
same,outcome,[20],inactive
CCCCCCCC/C=C\CCCCCCCC(=O)OC[C@@H](O)[C@H]1OC[C@H](O)[C@H]1O,AC50,[3],inconclusive: 0.137 µM
same,outcome,[4],inactive
same,outcome,[2],inactive
same,outcome,[5],inactive
same,outcome,[10],inactive
same,AC50,[11],inconclusive: 20 µM

# Two records drawn at random from the list so far:
smiles,measurement,setting,value
COc1ccc(-n2nc(C(F)F)cc2-c2ccc(S(C)=O)cc2)cc1 (stereo not given),AC50,[4],active: 12.9 µM
c1ccc(Nc2ccccc2)cc1,outcome,[15],inactive
